Some results were stated once for a whole list of compounds, not compound by compound.
Test system: mouse embryonic skin-derived fibroblasts (MEFs) infected with viruses expressing Ascl1
Test: First-round chemical screening (Ascl1+1): small molecules promoting Ascl1-based neuronal conversion
Format: cell-based
Settings: each small molecule added individually to Ascl1-infected Tau-EGFP MEFs

SMILES	increase of the number of TAUEGFP-/TUJ1-positive neuronal cells induced by Ascl1
Cc1cnc(-c2cnc(NCCNc3ccc(C#N)cn3)nc2-c2ccc(Cl)cc2Cl)[nH]1 [CHIR99021, 6-[[2-[[4-(2,4-dichlorophenyl)-5-(5-methyl-1H-imidazol-2-yl)-2-pyrimidinyl]amino]ethyl]amino]-3-pyridinecarbonitrile]	more than 2 fold
NC(=O)c1ccc(-c2nc(-c3ccc4c(c3)OCO4)c(-c3ccccn3)[nH]2)cc1 [SB431542, 4-[4-(1,3-benzodioxol-5-yl)-5-(2-pyridinyl)-1H-imidazol-2-yl]benzamide]	more than 2 fold
O=C(NC1CC1)c1cc(-c2cccs2)on1 [ISX9, N-cyclopropyl-5-(2-thienyl)-3-isoxazolecarboxamide]	more than 2 fold
C=C[C@@]1(C)CC(=O)[C@]2(O)[C@@]3(C)[C@@H](O)CCC(C)(C)[C@@H]3[C@H](O)[C@H](OC(C)=O)[C@@]2(C)O1 [Forskolin, forskolin]	more than 2 fold

Source: patent US10857185B2, “Compositions and methods for reprogramming non-neuronal cells into neuron-like cells” (Beihao Stem Cell and Regenerative Medicine Research …, priority 2015, dated 2020)
